Article PMC10441969, “Small protein Cgl2215 enhances phenolic tolerance by promoting MytA activity in Corynebacterium glutamicum” (Stress Biology, 2022)
No constants are given. Whether binding was seen depends on the method and setting. For some assays here: In cells and extracts the contact can be indirect. Some entries that bind do so weakly or less than the wild type. For some assays here: Tags and fused reporters may be left off the sequences shown.

B1: His6-MytA (enzyme, UniProt P0C1D6 44-657)
chain: QSSNLSSDAVIGSIAQGVTDGLTDYLKPRVEELPAGEVTYPEIAGLPDGVRVISAEWATSKHVILTIQSAAMPERPIKVQLLLPRDWYSSPNREFPEIWALDGLRAIEEQSGWTIETNIEQYYADKNAIVVLPVGGESSFYSDWEGPNNGKNYQWETFLTQELAPILDKGFRSNTDRAITGISMGGTAAVNIATHHPDMFKFVGSFSGYLDTTSAGMPIAISAALADAGGYDANAMWGPVGSERWQENDPKSNVDKLKGKTIYVSSGNGADDFGKEGSVAIGPANAAGVGLEVISRMTSQTFVDRASQAGVEVVASFRPSGVHSWEYWQFEMTQAFPHIANALGMSTEDRGVECAPVGAIADAVADGAMGTCLTNEYDVTGGKAQDFANGRAYWSANTGAFGLVGRINARYSELGGPASWLGYPTSSELKTPDGRGRFVTFEHGSIYWTATTGPWEIPGDMLAAWGTQDYEKGSLGYPTGAAVEYNGGLRQQFEGGYVFRTSNNQSYWVRGEISKKYAEDGIFAQLGFPTGNEKLINGGAFQEFEKGNIYWSASTGAHVILHGDIFDAWGAKGWEQGEYGFPTSDQTAITAGGQTIDFQNGTIRQVNGRIEESR
B2: T18-MytA (enzyme, UniProt P0C1D6 1-657)
chain: MRDTAFRSIKAKAQAKRRSLWIAAGAVPTAIALTMSLAPMASAQSSNLSSDAVIGSIAQGVTDGLTDYLKPRVEELPAGEVTYPEIAGLPDGVRVISAEWATSKHVILTIQSAAMPERPIKVQLLLPRDWYSSPNREFPEIWALDGLRAIEEQSGWTIETNIEQYYADKNAIVVLPVGGESSFYSDWEGPNNGKNYQWETFLTQELAPILDKGFRSNTDRAITGISMGGTAAVNIATHHPDMFKFVGSFSGYLDTTSAGMPIAISAALADAGGYDANAMWGPVGSERWQENDPKSNVDKLKGKTIYVSSGNGADDFGKEGSVAIGPANAAGVGLEVISRMTSQTFVDRASQAGVEVVASFRPSGVHSWEYWQFEMTQAFPHIANALGMSTEDRGVECAPVGAIADAVADGAMGTCLTNEYDVTGGKAQDFANGRAYWSANTGAFGLVGRINARYSELGGPASWLGYPTSSELKTPDGRGRFVTFEHGSIYWTATTGPWEIPGDMLAAWGTQDYEKGSLGYPTGAAVEYNGGLRQQFEGGYVFRTSNNQSYWVRGEISKKYAEDGIFAQLGFPTGNEKLINGGAFQEFEKGNIYWSASTGAHVILHGDIFDAWGAKGWEQGEYGFPTSDQTAITAGGQTIDFQNGTIRQVNGRIEESR

What was measured:
[1] = target: T1, GST-Cgl2215 (C. glutamicum) (UniProt Q8NNI6); experiment: pull-down; His6-MytA and GST-Cgl2215 co-expressed in E. coli BL21(DE3); lysate supernatant loaded onto GST-binding resin, washed with five column volumes; western blot against GST or His
T1 sequence: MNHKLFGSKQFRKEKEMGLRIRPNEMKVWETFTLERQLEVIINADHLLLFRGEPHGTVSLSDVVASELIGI

[2] = target: T2, T25-Cgl2215 (C. glutamicum) (UniProt Q8NNI6); experiment: two-hybrid; bacterial two-hybrid in E. coli BTH101 (T18-mytA/T25-cgl2215); colony colour on X-Gal plates and β-galactosidase activity, 30 °C
T2 sequence: T1 sequence

| Binder | binding [1] | binding [2] |
| --- | --- | --- |
| B1 | binds | – |
| B2 | – | binds |
